# Laboratory results reported in US10421780B2, “Peptide for targeting autophagic cells and use thereof” (Kyungpook National University Industry-Academic Cooperation …, priority 2015, dated 2019).
# At least one compound was matched to its structure with a doubt left.
# System: A549, HT1376, MDA-MB-231, HeLa and BEAS-2B cell lines
# Assay: Western blotting of LC3 I and LC3 II for autophagy level
# Assay type: cell-based
# Settings: rapamycin 4 hours; MDA-MB-231 and HeLa cells versus HT1376 and A549 cells (FIG. 1)
# Protocol: After 4 hours, the cells were washed two times with 1×PBS, followed by a western blotting was carried out to investigate the protein levels of LC3 I and LC3 II (hereinafter referred to as, LC3 I/II). In order to perform the western blotting, the cells were first lysed with RIPA buffer with 1/ml protease inhibitor cocktail in the drug-treated cells. The whole cell extracts were fractionated by SDS-PAGE, and transferred to a nitrocellulose membrane using a dry blot (Bio-Rad). The membranes were incubated with TBST (10 mM Tris, pH 8.0, 150 mM NaCl, 0.5% Tween 20) containing 5% nonfat milk for 60 minutes, then washed once with TBST. The membrane was treated with rabbit antibody against human LC3 I/II (abcam) and stirred overnight at 4° C. The membrane was washed 3 times for 10 min with TBST, then was incubated for 1 hour with the HRP-labeled antibody (mouse anti-rabbit IgG-HRP, Santa Cruz, Inc.) against the rabbit antibody isolated from a mouse as a secondary antibody (1:3000 dilution). After washing three times with TBST and developing according to the protocol of the manufacturer of the ECL system (Amersham Biosciences), an image was detected with a luminescent image analyzer (LAS100 Plus, Fujifilm, Japan).
compound,measurement,value
CO[C@H]1C[C@@H]2CC[C@@H](C)[C@@](O)(O2)C(=O)C(=O)N2CCCC[C@H]2C(=O)O[C@H]([C@H](C)C[C@@H]2CC[C@@H](O)[C@H](OC)C2)CC(=O)[C@H](C)/C=C(\C)[C@@H](O)[C@@H](OC)C(=O)[C@H](C)C[C@H](C)/C=C/C=C/C=C/1C [rapamycin],autophagy induction (LC3 II protein),higher autophagy induction
